Measured values published in PMC8679000, “Biochemical Characterizations of Human TMPK Mutations Identified in Patients with Severe Microcephaly: Single Amino Acid Substitutions Impair Dimerization and Abolish Their Catalytic Activity” (ACS Omega, 2021).
Positions count from the first letter of the chain named. In names and notes the source's numbering stands. Results are given in words; binding and its absence hold for the method and conditions named. One block for each binder: values may come before it.

Columns and labels:
Test in all cases: SEC; Superdex G200; 10 mM Tris/HCl pH 7.6, 100 mM NaCl, 5 mM MgCl2, 5 mM DTT; 200 ug protein injected, 0.4 mL/min; 0.4 mL fractions analysed by TMPK activity and Western blot; size markers BSA, ovalbumin, cytochrome C; both purified
[1] = molecular target: human TMPK P81L mutant (human) (UniProt P23919)
[2] = molecular target: human TMPK A99T mutant (human) (UniProt P23919)
[3] = molecular target: human TMPK D128N mutant (human) (UniProt P23919)

- binding [1]: no binding (tested: 200 μg injected)
B1: human TMPK P81L mutant (enzyme, UniProt P23919 1-212)
chain: MAARRGALIVLEGVDRAGKSTQSRKLVEALCAAGHRAELLRFPERSTEIGKLLSSYLQKKSDVEDHSVHLLFSANRWEQVLLIKEKLSQGVTLVVDRYAFSGVAFTGAKENFSLDWCKQPDVGLPKPDLVLFLQLQLADAAKRGAFGHERYENGAFQERALRCFHQLMKDTTLNWKMVDASKSIEAVHEDIRVLSEDAIRTATEKPLGELWK

- binding [2]: no binding (tested: 200 μg injected)
B2: human TMPK A99T mutant (enzyme, UniProt P23919 1-212)
chain: B1 chain with L81P, A99T

- binding [3]: no binding (tested: 200 μg injected)
B3: human TMPK D128N mutant (enzyme, UniProt P23919 1-212)
chain: B1 chain with L81P, D128N
